Experimental data: PubChem BioAssay AID504764 (Drosophila RNAi Screening Center, 2011)

Screen: 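Genes whose knock-down alters Notch-dependent transcription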 (primary screen)
Cell system: Drosophila Kc167 cells
Knock-down reagent: long dsRNA against Drosophila genes
Duration: about 5 days (4 days dsRNA, then 24 h after transfection)
Challenge: transfection of constitutively active membrane-tethered Notch lacking the extracellular domain, read 24 h later
Measurement: 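Light from a Notch-responsive E(spl)m3 luciferase reporter under active Notch, with control-promoter and no-Notch reporter wells to normalise; raw counts from paired wells a and b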
Direction: induced reporter light, run 1, well a and induced reporter light, run 1, well b: higher = more light from the Notch target reporter with active Notch; control promoter light, run 1, well a and control promoter light, run 1, well b: higher = more light from the viral control promoter (cell number, transfection, viability); uninduced reporter light, run 1, well a: higher = more light from the Notch target reporter without active Notch
Rule for the call: 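Hit if the duplicate-averaged log2 ratio of induced to control-promoter light gives a plate-wise z beyond ±2, or induced to uninduced beyond ±1.8; weak-control or discordant-duplicate wells dropped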
Calls: active = modifier hit (raised or lowered Notch signal); inactive = not a hit
The screen tested about 22,000 reagents; shown is a random part of those with a known target gene and a result. In the full data, 403 (1.9%) were called active. 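Unnormalised raw counts per well; ratio z-scores behind the hit calls and whether each hit raises or lowers signal are not deposited.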 A number with no mark means an inactive call. Reagent sequences are not shown. The record does not give: the amount of reagent.

target	dsRNA	induced reporter light, run 1, well a	induced reporter light, run 1, well b	control promoter light, run 1, well a	control promoter light, run 1, well b	uninduced reporter light, run 1, well a
CG9328	DRSC03203	1.44e5	1.54e5	1.38e5	1.39e5	10965
ksr (kinase suppressor of ras)	DRSC12379	79680	79915	48120	47060	6950
ball (ballchen)	DRSC14145	38720 (active)	45345	1.18e5	95495	2505
CG9386	DRSC16485	83970	90355	1.21e5	87430	8205
CtsL2 (Cathepsin L2)	DRSC06978	1.20e5	1.38e5	1.16e5	1.02e5	8870
CG31463	DRSC14346	1.13e5	1.21e5	1.32e5	1.04e5	8895
CG12730	DRSC17885	1.38e5	1.47e5	3.28e5	1.91e5	10305
CG31823	DRSC01887	1.11e5	1.04e5	1.21e5	1.45e5	10295
bsh (brain-specific homeobox)	DRSC03498	1.80e5	1.45e5	2.28e5	2.16e5	11235
CG13607	DRSC14610	1.65e5	1.53e5	2.25e5	2.09e5	12555
CG12947	DRSC14575	82485	1.18e5	1.04e5	74445	9250
CG15422	DRSC00436	1.82e5	1.41e5	1.40e5	1.48e5	9525
CG3611	DRSC04395	2.03e5	2.07e5	2.05e5	1.97e5	15015
CG31089	DRSC15934	1.72e5	1.71e5	1.89e5	1.83e5	13860
CG13392	DRSC02262	1.44e5	1.80e5	84965	97925	19238
Lipt2 (Lipoyl(octanoyl) transferase 2)	DRSC12338	1.03e5	1.69e5	81725	96255	9015
Obp8a (Odorant-binding protein 8a)	DRSC17868	1.40e5	1.08e5	2.16e5	2.17e5	7905
CG13008	DRSC19527	36245	31230	22660	22105	3915
CG13008	DRSC19528	53205	47470	72605	35150	8082
CG13992	DRSC02324	1.54e5	1.63e5	1.59e5	1.87e5	8925
CG15525	DRSC15062	1.09e5	1.05e5	1.55e5	1.93e5	10995
CG6833	DRSC10721	78965	85525	41870	65145	8295
Acat2 (Acetyl-CoA acetyltransferase 2)	DRSC08630	90210	99105	1.18e5	1.15e5	4605
CG5823	DRSC15881	1.80e5	1.87e5	2.20e5	2.44e5	18185
CG42843 (retired record)	DRSC01118	1.39e5	1.24e5	1.54e5	1.48e5	9855
CG42843 (retired record)	DRSC02231	1.24e5	1.35e5	66000	90685	16460
CG42843 (retired record)	DRSC02233	1.01e5	1.11e5	70580	74960	14780

Entries listed above marked active:
target	dsRNA	induced reporter light, run 1, well a	induced reporter light, run 1, well b	control promoter light, run 1, well a	control promoter light, run 1, well b	uninduced reporter light, run 1, well a
ball (ballchen)	DRSC14145	38720 (active)	45345	1.18e5	95495	2505

The results go on:
target	dsRNA	induced reporter light, run 1, well a	induced reporter light, run 1, well b	control promoter light, run 1, well a	control promoter light, run 1, well b	uninduced reporter light, run 1, well a
CG14113	DRSC10116	1.46e5	1.20e5	1.33e5	1.29e5	6450
CG13022	DRSC09902	90675	97645	1.15e5	1.13e5	6650
CG31419	DRSC15771	1.80e5 (active)	1.81e5	2.11e5	2.49e5	19525
Ripalpha (RPA-interacting protein alpha)	DRSC02657	95015	1.25e5	66960	82330	16280
CG14947	DRSC02429	1.79e5	2.08e5	1.71e5	1.97e5	17275
dre4	DRSC08714	69835	92885	1.11e5	1.66e5	5910
M1BP (Motif 1 Binding Protein)	DRSC16566	32495	22700	19860	17795	6140
Cyp4d1 (Cytochrome P450 4d1)	DRSC17694	50805	65600	85440	70825	5915
Cyp4d1 (Cytochrome P450 4d1)	DRSC18456	1.03e5	85265	1.96e5	2.08e5	7120
PIG-B (Phosphatidylinositol glycan anchor biosynthesis class B)	DRSC08216	1.69e5	1.70e5	1.18e5	61005	12205
Tb (Tubby)	DRSC15815	1.82e5	1.70e5	1.92e5	1.83e5	16825
CG7094	DRSC03005	1.31e5	1.19e5	1.43e5	1.62e5	10710
Creld (Cysteine rich with EGF like domains)	DRSC00308	1.23e5	1.47e5	97590	67430	9415
Non3 (Novel nucleolar protein 3)	DRSC16359	1.74e5	1.78e5	2.36e5	2.40e5	17375
Orc6 (Origin recognition complex subunit 6)	DRSC07497	1.73e5	1.64e5	2.09e5	1.97e5	16200
Acsx1L (Acyl-CoA synthetase X1 L)	DRSC16014	1.88e5	1.40e5	1.55e5	1.65e5	15095
sicily (severe impairment of CI with lengthened youth)	DRSC19704	1.18e5	99850	1.95e5	1.91e5	6950
Tango9 (Transport and Golgi organization 9)	DRSC14173	1.27e5	1.30e5	88690	82010	8710
Dp (DP transcription factor)	DRSC07402	78715	71375	86500	90305	6625
CG15196	DRSC19643	1.10e5	98015	1.54e5	1.51e5	7630
CG14567	DRSC11728	1.10e5	1.14e5	1.39e5	1.13e5	7605
beta'COP (Coat Protein (coatomer) beta')	DRSC03492	13965	14130	18195	22915	1135
Gle1 (Gle1 RNA export mediator)	DRSC06485	74580	83500	84210	69665	7240
